# The supplement of paper PMC10849652
# By UniProt entry, the sequences of proteins in these tests, tags left out. Where a name states a change or a piece, a line headed by the entry shows the natural chain unless it says otherwise.
# UniProt O14617: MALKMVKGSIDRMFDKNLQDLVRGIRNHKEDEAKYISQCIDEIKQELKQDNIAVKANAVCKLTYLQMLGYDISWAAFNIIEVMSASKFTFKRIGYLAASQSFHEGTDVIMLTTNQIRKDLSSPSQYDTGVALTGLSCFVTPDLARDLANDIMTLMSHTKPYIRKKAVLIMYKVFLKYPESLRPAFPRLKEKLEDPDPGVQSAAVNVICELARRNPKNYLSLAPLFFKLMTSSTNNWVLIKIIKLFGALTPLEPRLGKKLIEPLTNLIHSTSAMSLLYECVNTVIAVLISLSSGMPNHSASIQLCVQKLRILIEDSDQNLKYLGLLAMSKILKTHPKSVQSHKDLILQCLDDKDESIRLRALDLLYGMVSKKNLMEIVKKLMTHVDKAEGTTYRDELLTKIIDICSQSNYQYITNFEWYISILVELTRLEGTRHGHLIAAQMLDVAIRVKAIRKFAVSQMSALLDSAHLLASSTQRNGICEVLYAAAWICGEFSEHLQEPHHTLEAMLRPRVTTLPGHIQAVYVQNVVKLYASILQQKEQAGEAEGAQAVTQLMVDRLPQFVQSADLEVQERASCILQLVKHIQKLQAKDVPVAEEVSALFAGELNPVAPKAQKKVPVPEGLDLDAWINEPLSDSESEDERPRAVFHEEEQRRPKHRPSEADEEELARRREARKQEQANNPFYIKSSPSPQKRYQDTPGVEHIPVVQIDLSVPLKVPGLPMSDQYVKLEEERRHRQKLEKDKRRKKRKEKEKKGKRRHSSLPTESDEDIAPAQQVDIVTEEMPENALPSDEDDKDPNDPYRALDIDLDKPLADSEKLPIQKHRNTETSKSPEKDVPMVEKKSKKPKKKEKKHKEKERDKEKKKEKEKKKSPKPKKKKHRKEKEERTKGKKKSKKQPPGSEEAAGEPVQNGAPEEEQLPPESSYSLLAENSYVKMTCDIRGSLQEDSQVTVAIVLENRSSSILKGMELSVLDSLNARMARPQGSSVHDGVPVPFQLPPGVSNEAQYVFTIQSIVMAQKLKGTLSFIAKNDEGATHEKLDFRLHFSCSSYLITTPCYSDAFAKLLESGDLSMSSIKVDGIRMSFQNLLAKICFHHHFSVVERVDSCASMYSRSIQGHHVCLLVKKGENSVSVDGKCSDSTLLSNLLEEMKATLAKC
# UniProt Q9Y587: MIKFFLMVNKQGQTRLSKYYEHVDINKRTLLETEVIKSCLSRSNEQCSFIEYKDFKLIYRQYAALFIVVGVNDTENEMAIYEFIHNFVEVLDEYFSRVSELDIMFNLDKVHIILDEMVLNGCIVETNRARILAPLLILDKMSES
# UniProt Q8IZ07: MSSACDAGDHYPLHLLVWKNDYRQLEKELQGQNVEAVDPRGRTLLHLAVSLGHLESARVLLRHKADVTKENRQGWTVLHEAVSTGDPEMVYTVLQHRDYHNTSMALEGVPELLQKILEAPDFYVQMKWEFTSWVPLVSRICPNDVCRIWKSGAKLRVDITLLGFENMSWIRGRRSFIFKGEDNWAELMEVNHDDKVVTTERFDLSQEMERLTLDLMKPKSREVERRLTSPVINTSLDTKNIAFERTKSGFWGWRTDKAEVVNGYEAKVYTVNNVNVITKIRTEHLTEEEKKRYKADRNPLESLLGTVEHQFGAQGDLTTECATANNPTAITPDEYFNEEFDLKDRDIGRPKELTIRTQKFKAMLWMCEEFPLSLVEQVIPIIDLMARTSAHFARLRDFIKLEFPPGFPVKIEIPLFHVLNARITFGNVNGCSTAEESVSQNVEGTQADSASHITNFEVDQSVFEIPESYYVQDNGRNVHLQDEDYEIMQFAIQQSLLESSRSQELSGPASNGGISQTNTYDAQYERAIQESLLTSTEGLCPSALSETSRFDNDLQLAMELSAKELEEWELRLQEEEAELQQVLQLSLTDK
# UniProt O14791: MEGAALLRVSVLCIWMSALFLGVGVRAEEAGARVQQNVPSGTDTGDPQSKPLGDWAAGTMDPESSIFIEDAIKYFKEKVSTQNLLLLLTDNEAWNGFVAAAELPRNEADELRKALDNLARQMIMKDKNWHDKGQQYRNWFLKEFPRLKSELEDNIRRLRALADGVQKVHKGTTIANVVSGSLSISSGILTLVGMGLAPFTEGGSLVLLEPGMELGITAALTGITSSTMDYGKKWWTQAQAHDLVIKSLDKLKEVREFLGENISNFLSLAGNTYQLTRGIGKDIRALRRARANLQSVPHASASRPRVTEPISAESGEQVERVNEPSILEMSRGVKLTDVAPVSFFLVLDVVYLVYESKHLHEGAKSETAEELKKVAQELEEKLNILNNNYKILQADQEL
# UniProt P13798: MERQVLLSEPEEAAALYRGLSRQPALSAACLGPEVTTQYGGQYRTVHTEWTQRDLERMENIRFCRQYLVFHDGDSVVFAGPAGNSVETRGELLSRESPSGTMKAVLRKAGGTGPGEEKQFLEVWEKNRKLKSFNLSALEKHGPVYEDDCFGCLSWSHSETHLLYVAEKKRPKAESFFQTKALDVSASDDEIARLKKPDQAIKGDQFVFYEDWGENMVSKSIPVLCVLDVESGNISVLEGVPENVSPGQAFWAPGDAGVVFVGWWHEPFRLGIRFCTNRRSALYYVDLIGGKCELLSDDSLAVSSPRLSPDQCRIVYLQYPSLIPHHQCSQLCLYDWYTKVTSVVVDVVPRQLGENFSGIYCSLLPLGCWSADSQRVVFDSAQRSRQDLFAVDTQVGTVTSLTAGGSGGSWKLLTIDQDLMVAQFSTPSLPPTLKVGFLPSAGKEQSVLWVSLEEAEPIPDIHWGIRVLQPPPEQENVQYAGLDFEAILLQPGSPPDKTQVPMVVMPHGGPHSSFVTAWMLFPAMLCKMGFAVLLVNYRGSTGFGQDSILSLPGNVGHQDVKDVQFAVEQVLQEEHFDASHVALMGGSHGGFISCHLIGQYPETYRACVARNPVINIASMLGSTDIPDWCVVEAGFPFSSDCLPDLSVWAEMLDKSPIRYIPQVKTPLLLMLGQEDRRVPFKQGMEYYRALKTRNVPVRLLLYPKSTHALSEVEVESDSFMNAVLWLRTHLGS
# UniProt P53365: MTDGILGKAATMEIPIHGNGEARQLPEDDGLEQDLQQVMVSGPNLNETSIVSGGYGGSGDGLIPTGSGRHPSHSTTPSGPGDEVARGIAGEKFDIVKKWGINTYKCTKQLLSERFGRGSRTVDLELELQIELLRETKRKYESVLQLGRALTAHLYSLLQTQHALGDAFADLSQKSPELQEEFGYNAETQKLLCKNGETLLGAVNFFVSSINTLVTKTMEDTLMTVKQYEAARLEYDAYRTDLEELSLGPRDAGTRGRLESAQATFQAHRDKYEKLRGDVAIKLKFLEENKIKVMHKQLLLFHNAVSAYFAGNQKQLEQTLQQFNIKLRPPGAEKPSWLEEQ
# UniProt P09525: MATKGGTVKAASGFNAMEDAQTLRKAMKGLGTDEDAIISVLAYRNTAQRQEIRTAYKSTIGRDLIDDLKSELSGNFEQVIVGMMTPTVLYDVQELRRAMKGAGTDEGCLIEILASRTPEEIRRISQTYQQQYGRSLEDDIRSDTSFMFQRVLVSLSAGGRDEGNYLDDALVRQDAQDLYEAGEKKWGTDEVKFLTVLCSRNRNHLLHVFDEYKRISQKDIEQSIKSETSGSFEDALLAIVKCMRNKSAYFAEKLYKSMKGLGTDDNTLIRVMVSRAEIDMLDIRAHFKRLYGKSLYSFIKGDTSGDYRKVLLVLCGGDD
# UniProt P84077: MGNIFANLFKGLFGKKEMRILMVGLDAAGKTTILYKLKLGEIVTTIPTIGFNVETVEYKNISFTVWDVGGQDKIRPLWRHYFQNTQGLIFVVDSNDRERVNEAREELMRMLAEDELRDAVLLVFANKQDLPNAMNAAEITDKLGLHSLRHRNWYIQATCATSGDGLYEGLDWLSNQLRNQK
# UniProt Q92624: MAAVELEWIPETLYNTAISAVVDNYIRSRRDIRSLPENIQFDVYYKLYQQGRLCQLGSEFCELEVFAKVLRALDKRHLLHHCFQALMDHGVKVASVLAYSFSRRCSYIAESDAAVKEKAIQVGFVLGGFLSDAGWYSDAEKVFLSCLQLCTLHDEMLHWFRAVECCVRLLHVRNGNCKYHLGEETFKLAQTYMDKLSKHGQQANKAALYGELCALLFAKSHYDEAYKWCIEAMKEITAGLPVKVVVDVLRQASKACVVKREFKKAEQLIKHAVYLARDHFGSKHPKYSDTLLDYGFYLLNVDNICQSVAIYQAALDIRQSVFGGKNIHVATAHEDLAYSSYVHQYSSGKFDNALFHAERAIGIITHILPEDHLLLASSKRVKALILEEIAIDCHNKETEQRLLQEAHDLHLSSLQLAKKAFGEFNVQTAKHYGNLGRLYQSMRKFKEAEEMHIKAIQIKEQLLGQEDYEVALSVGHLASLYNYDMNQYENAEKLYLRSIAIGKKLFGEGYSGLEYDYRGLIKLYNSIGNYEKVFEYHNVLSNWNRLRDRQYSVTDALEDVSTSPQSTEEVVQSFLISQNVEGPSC
# UniProt P53367: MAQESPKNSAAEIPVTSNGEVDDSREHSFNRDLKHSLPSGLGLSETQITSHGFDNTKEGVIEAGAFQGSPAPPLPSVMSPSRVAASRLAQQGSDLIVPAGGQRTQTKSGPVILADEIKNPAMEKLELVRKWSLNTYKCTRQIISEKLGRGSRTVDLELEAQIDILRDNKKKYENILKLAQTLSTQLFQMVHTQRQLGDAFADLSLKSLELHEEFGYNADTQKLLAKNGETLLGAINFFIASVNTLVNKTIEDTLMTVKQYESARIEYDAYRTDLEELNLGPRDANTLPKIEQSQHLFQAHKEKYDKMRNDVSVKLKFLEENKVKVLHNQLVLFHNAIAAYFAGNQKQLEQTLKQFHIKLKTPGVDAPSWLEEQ
# UniProt Q9BUR5: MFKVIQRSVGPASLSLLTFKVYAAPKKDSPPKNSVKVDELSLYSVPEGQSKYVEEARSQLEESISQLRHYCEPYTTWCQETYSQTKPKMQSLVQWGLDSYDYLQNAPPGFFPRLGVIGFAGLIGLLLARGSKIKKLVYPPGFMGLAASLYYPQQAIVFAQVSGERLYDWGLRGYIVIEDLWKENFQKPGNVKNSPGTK
# UniProt Q0VD83: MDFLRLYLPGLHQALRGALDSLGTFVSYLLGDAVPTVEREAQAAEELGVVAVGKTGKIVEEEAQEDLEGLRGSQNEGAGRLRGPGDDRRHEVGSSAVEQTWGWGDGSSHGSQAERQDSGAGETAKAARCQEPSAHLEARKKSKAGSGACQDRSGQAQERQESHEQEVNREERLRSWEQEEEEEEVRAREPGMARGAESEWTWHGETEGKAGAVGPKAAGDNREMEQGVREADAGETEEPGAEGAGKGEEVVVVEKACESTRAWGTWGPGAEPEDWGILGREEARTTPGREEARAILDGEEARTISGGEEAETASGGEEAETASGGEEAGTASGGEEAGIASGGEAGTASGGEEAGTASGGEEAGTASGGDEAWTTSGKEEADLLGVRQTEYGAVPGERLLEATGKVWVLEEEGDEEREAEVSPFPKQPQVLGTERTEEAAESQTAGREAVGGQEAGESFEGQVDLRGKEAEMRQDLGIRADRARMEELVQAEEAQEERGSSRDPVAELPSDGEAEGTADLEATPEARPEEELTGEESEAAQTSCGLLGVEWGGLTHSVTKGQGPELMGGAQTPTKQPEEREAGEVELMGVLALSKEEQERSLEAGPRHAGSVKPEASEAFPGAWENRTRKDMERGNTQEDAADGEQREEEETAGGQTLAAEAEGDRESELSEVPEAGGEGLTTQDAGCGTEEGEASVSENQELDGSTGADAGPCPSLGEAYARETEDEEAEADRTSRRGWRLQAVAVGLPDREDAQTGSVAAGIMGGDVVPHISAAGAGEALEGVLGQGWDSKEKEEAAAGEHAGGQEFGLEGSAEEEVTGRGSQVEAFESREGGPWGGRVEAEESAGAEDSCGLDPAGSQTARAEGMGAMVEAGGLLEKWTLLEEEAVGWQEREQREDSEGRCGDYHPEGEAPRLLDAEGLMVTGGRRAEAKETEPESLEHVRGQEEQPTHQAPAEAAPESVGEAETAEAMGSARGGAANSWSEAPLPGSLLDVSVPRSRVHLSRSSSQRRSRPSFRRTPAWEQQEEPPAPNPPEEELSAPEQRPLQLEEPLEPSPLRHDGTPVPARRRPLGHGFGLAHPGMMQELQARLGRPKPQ
# Some of the results follow.
# Compound: CC1=C(SC2=C1C(=N[C@H](C3=NN=C(N32)C)CC(=O)N)C4=CC=C(C=C4)Cl)C
# Assay: log2 fold change, soluble protein after heating vs DMSO (PISA); higher = thermal stabilisation; K562 cells, 10 uM, 30 min; active = over 0.2 and 3.5 SD of the protein, either way, in both replicates (recomputed)
# How it was run: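 Values are thermal stability changes relative to control samples and are taken from duplicates. They are stated as log2 fold changes. Before quantification by TMTpro 16plex LC-MS/MS with equalised channel sums, K562 cells at 2×10^6 cells/mL were treated with 10 μM compound for 30 min, heated in aliquots for 3 min across 48°C-58°C, pooled, extracted in PBS with 0.5% NP-40 at 4°C, and centrifuged at 21,000xg for 90 min to give the soluble supernatant.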
row,Target,log2 fold change
1,AP3D1 isoform 5 (UniProt O14617),inactive: -0.001
2,AP4S1 (UniProt Q9Y587),inactive: 0.133
3,ANKRD13A (UniProt Q8IZ07),inactive: -0.004
4,APOL1 isoform 2 (UniProt O14791),inactive: -0.235
5,APEH (UniProt P13798),inactive: -0.003
6,ARFIP2 (UniProt P53365),inactive: 0.014
7,ANXA4 (UniProt P09525),inactive: 0.009
8,ARF1 (UniProt P84077),inactive: 0.024
9,APC (UniProt P25054),inactive: -0.119
10,APPBP2 (UniProt Q92624),inactive: -0.029
11,APOL2 (UniProt J3KQL8),inactive: 0.032
12,ARFIP1 (UniProt P53367),inactive: 0.042
13,ANKZF1 (UniProt Q9H8Y5),inactive: -0.037
14,APOO (UniProt Q9BUR5),inactive: -0.034
15,APOBR (UniProt Q0VD83),inactive: 0.014

# Two records picked at random from those above:
row,Target,log2 fold change
8,ARF1 (UniProt P84077),inactive: 0.024
14,APOO (UniProt Q9BUR5),inactive: -0.034
